Results are given in words; binding and its absence hold for the method and conditions named. For some assays here: In cells and extracts the contact can be indirect. Some binding calls cover weakened binding; strength is not graded here.
Tests used:
[1] = target: GFP-GBF1 (wild type) immunoprecipitated from cells expressing inactive SrcKM (human) (UniProt Q92538); experiment: pull-down; in vitro Arf1 binding assay: NGFP-GBF1 (wild type or mutant) immunoprecipitated on GFP-trap agarose beads from cells expressing SrcKM or SrcEG, incubated with 10 µg recombinant Arf1-del17 protein for 1 hr at 4°C in the presence of GDP; washed three times with HKMT buffer (20 mM HEPES pH 7.4, 0.1 M KCl, 1 mM MgCl2, 0.5% Triton X-100); bound Arf1 by western blot; both purified
[2] = target: GFP-GBF1 (wild type) immunoprecipitated from cells expressing inactive SrcKM (human) (UniProt Q92538); experiment: pull-down; in vitro Arf1 binding assay: NGFP-GBF1 immunoprecipitated on GFP-trap agarose beads from cells expressing SrcKM or SrcEG, incubated with 4 mg lysate of HEK293T cells expressing Arf1-V5 (pre-cleared) for 1 hr at 4°C in the presence of GDP; washed three times with HKMT buffer (20 mM HEPES pH 7.4, 0.1 M KCl, 1 mM MgCl2, 0.5% Triton X-100); bound Arf1 by immunoblot; only the target purified

The chains behind the UniProt entries cited, without tags or fusion partners. Where a name states a change or a piece, a line headed by the entry shows the natural chain unless it says otherwise. A line that says so, or that is headed by a name, gives the form on record, which may keep a tag or linker.
GFP-GBF1 (wild type) immunoprecipitated from cells expressing inactive SrcKM (Q92538, form named): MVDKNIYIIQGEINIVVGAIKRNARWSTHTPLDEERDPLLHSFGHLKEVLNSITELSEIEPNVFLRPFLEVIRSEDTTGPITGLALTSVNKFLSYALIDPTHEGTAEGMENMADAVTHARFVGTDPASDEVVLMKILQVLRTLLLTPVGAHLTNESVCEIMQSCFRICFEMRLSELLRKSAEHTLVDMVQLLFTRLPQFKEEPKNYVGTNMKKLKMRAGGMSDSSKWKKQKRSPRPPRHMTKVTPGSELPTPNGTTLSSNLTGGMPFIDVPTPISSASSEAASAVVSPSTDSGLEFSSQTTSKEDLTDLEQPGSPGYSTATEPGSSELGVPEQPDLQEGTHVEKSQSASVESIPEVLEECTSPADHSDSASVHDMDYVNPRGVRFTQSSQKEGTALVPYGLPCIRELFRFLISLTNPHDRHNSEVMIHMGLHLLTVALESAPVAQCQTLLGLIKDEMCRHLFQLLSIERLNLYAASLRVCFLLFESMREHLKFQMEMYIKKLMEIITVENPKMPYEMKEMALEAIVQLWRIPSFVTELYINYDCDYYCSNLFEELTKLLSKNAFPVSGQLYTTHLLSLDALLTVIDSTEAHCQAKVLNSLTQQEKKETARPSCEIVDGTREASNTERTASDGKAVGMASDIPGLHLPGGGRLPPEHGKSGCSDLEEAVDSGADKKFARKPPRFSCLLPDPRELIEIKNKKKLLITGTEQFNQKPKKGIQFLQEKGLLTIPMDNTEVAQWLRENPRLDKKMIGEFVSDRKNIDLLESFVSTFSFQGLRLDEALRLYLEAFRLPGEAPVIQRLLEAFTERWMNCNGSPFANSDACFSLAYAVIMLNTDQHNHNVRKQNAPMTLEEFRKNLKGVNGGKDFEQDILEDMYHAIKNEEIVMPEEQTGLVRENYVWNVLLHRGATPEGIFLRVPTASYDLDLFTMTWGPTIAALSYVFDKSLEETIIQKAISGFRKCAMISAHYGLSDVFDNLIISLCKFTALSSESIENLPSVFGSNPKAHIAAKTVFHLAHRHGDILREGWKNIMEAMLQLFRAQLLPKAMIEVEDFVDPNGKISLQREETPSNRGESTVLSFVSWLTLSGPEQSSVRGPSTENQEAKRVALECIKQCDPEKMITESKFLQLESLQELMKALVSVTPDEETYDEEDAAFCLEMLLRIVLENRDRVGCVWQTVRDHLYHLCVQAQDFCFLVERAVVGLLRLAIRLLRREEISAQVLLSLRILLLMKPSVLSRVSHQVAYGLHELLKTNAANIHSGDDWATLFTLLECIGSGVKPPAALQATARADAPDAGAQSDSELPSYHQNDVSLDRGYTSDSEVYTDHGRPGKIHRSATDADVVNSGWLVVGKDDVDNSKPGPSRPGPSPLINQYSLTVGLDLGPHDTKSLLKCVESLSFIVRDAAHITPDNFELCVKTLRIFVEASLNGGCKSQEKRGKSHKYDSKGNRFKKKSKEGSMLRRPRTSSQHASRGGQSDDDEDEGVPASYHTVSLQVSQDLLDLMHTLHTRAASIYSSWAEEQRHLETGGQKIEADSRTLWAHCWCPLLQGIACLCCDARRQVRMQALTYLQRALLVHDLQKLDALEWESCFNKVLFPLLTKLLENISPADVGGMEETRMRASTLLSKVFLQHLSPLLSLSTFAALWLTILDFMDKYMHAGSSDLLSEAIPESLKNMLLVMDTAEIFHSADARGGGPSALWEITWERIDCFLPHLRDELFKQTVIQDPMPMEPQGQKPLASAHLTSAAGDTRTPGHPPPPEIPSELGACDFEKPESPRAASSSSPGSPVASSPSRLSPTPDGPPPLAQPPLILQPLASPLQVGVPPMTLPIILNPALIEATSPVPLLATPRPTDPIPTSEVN
UniProt P84077: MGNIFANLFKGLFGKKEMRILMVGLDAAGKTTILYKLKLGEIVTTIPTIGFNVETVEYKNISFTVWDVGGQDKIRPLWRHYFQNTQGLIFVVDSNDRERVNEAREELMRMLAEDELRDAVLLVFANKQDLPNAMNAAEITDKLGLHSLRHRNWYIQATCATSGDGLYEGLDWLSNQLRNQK

binding [1]	binding [2]	Substance
binds	–	Arf1-del17-His, recombinant Arf1 deleted of the first 17 amino acids (from UniProt P84077 18-181) (domain or fragment)
–	binds	C-terminal V5-tagged Arf1 (Arf1-V5) (from UniProt P84077 1-181)
